Reference: paper PMC8391104, “Molecular mechanism of Mad1 kinetochore targeting by phosphorylated Bub1” (EMBO Reports, 2021)
No constants are given. Whether binding was seen depends on the method and setting. Some results given as binding are weak or reduced against the parent protein; the word gives no strength.

What was measured:
Mad1^CTD F629A (human) = biological target: T1, Mad1^CTD F629A (human) (UniProt Q9Y6D9); assay: condition: Mad1 30-100 µM in the cell, peptide 0.3-1.5 mM titrated; ITC; Bub1^CD1 peptide (0.3-1.5 mM) titrated into Mad1 (30-100 µM) in the cell; 20°C; 20 mM HEPES pH 7.5, 100 mM NaCl, 1 mM TCEP; single-site model; stoichiometry counted on dimeric Mad1^CTD; both purified
T1 sequence: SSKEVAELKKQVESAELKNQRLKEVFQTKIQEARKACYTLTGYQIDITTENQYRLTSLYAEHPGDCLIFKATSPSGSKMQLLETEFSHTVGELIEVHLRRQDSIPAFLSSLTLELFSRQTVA

Mad1^CTD L618A (human) = biological target: T2, Mad1^CTD L618A (human) (UniProt Q9Y6D9); assay: as above
T2 sequence: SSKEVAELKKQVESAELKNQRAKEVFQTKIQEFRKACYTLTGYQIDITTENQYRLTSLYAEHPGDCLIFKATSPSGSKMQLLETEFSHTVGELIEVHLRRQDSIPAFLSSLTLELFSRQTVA

[1] = biological target: Mad1 (420-718) in complex with C-Mad2 (Mad1:C-Mad2 tetramer) (UniProt Q9Y6D9); assay: ITC; Bub1^CD1 peptide (0.3-1.5 mM) titrated into Mad1 (30-100 µM) in the cell; 20°C; 20 mM HEPES pH 7.5, 100 mM NaCl, 1 mM TCEP; single-site model; stoichiometry counted on dimeric Mad1^CTD; both purified
[2] = biological target: Mad1 (485-718) in complex with C-Mad2 (Mad1:C-Mad2 tetramer) (UniProt Q9Y6D9); assay: as above

binding (Mad1^CTD F629A (human)): no binding
binding (Mad1^CTD L618A (human)): no binding
binding [1]: binds
binding [2]: binds
B1: doubly phosphorylated Bub1^CD1 peptide (pSer459-pThr461) (peptide)
peptide: KVQPSPTVHTKEALGFIMNMFQAPTS
modifications: phosphoserine at 459, phosphothreonine at 461
